PubChem BioAssay AID196 (DTP/NCI, 2004)
The list shows only some results of the screen, not a fair sample: it is rich in T/C values a quarter to a half above the control, in often repeated tests (any T/C) and in doses without a T/C. Further doses and runs are listed elsewhere. T/C gives the treated animals as a percentage of the vehicle group. Some entries give survivors of the animals treated and no T/C: the source holds a T/C of zero for them, seemingly a mark for toxic or unscored doses. Some survivor counts are full or nearly so, which does not show that the dose was tolerated: survival well below the control is almost never listed, so the zero probably covers shortened survival too. Survivors were counted at the toxicity check, usually on the fifth day, unless a day is given; later deaths do not show. Schedules are NCI's codes, read here as Q, the interval in days (D) or hours (H), X, the number of doses. Some doses were run more than once; the values are given in rising order. Brackets with × say how often a value occurs here. Where survival is the endpoint, the PubChem record calls one and a half times the control and up active, and a quarter to a half above the control has no call in these data; cut-offs in other NCI protocols can differ. Some T/C values carry the count of animals alive at the toxicity check (mostly the fifth day); where none is given, no animal had died by that day.

Tested on: BDF1 mice, intracerebral B16 melanoma, median survival T/C
Assay: NCI In Vivo Anticancer Drug Screen. Data for tumor model B16 Melanoma (intracerebral) in B6D2F1 (BDF1) mice
Conditions: T/C endpoint: median survival time, higher T/C = longer survival
Procedure: The antitumor activity of compounds was measured in mice bearing transplantable tumors. Survival or tumor size were measured and the results are expressed as the measurement made in the treated group (T) divided by the measurement made in the vehicle treated control group (C). The tumor model used in this assay is B16 Melanoma (intracerebral) in B6D2F1 (BDF1) mice

[1] = dose: 256.0 mg/kg/injection, schedule: Q01DX005 (ip), vehicle: saline with Tween-80

O=NN(CCF)C(=O)NCCO
survivor count (dose: 60.0 mg/kg/injection, schedule: Q01DX001 (ip), vehicle: saline): 2 of 10 on day 6 | survivor count (dose: 90.0 mg/kg/injection, schedule: Q01DX001 (ip), vehicle: Klucel (hydroxypropylcellulose) (HPC)): 6 of 10 on day 6 | T/C (dose: 100.0 mg/kg/injection, schedule: Q01DX001 (ip), vehicle: saline): 126 % of control | survivor count (dose: 135.0 mg/kg/injection, schedule: Q01DX001 (ip), vehicle: Klucel (hydroxypropylcellulose) (HPC)): 2 of 10 on day 6

CCN(CC)CCCC(C)Nc1c2ccc(Cl)cc2nc2ccc(OC)cc12 (stereo unspecified)
survivor count (dose: 8.0 mg/kg/injection, schedule: Q01DX009 (ip), vehicle: saline with Tween-80): 4 of 10 | survivor count (dose: 16.0 mg/kg/injection, schedule: Q01DX009 (ip), vehicle: saline with Tween-80): 8 of 10 | survivor count (dose: 32.0 mg/kg/injection, schedule: Q01DX009 (ip), vehicle: saline with Tween-80): 8 of 10 | survivor count (dose: 64.0 mg/kg/injection, schedule: Q01DX009 (ip), vehicle: saline with Tween-80): 4 of 10 | survivor count (dose: 128.0 mg/kg/injection, schedule: Q01DX009 (ip), vehicle: saline with Tween-80): 6 of 10 and 8 of 10 | survivor count (dose: 256.0 mg/kg/injection, schedule: Q01DX009 (ip), vehicle: saline with Tween-80): 0 of 10

O=CC(NC(=O)N(CCCl)N=O)C(O)C(O)C(O)CO (stereo unspecified)
survivor count (dose: 16.0 mg/kg/injection, schedule: Q01DX009 (ip), vehicle: saline): 10 of 10 | survivor count (dose: 32.0 mg/kg/injection, schedule: Q01DX009 (ip), vehicle: saline): 9 of 10 | survivor count (dose: 40.0 mg/kg/injection, schedule: Q01DX001 (ip), vehicle: Klucel (hydroxypropylcellulose) (HPC)): 10 of 10 on day 6 | survivor count (dose: 60.0 mg/kg/injection, schedule: Q01DX001 (ip), vehicle: Klucel (hydroxypropylcellulose) (HPC)): 10 of 10 on day 6 | survivor count (dose: 60.0 mg/kg/injection, schedule: Q01DX001 (ip), vehicle: saline with Tween-80): 10 of 10 | survivor count (dose: 120.0 mg/kg/injection, schedule: Q01DX001 (ip), vehicle: saline with Tween-80): 3 of 10

CN(C)N=Nc1ccc([N+](=O)[O-])cc1C(N)=O
T/C [1]: 127 % of control [9 of 10 alive]

CN=NNc1nc[nH]c1C(N)=O
survivor count (dose: 256.0 mg/kg/injection, schedule: Q01DX005 (ip), vehicle: saline): 10 of 10

COc1ccc2c(c1)CCC(c1ccccc1)=C2c1ccc(OCCN2CCCC2)cc1
survivor count (dose: 12.0 mg/kg/injection, schedule: Q01DX005 (ip), vehicle: Klucel (hydroxypropylcellulose) (HPC)): 10 of 10 | survivor count (dose: 96.0 mg/kg/injection, schedule: Q01DX005 (ip), vehicle: Klucel (hydroxypropylcellulose) (HPC)): 10 of 10

Nc1nncs1
T/C [1]: 125 % of control | T/C (dose: 512.0 mg/kg/injection, schedule: Q01DX005 (ip), vehicle: saline with Tween-80): 132 % of control

O=NN(CCF)C(=O)NC1CCCCC1
T/C (dose: 20.4 mg/kg/injection, schedule: Q01DX001 (ip), vehicle: other): 127 % of control | T/C (dose: 25.9 mg/kg/injection, schedule: Q01DX001 (ip), vehicle: other): 129 % of control [9 of 10 alive] | survivor count (dose: 36.0 mg/kg/injection, schedule: Q01DX001 (ip), vehicle: Klucel (hydroxypropylcellulose) (HPC)): 6 of 10 on day 6 | T/C (dose: 40.7 mg/kg/injection, schedule: Q01DX001 (ip), vehicle: other): 128 % of control | survivor count (dose: 72.0 mg/kg/injection, schedule: Q01DX001 (ip), vehicle: other): 6 of 10 | T/C (dose: 81.4 mg/kg/injection, schedule: Q01DX001 (ip), vehicle: other): 128 % of control [9 of 10 alive] | survivor count (dose: 100.0 mg/kg/injection, schedule: Q01DX001 (ip), vehicle: Klucel (hydroxypropylcellulose) (HPC)): 2 of 10 on day 6 | survivor count (dose: 120.0 mg/kg/injection, schedule: Q01DX001 (ip), vehicle: other): 0 of 10 | survivor count (dose: 200.0 mg/kg/injection, schedule: Q01DX001 (ip), vehicle: other): 0 of 10

CNc1nc(N(C)C)nc(N(C)C)n1
T/C (dose: 25.0 mg/kg/injection, schedule: Q01DX009 (ip), vehicle: saline, evaluated on day 30): 98 and 102 % of control | T/C (dose: 25.0 mg/kg/injection, schedule: Q01DX009 (ip), vehicle: saline, evaluated on day 60): 100 and 105 % of control | T/C (dose: 50.0 mg/kg/injection, schedule: Q01DX009 (ip), vehicle: saline, evaluated on day 30): 105 and 107 % of control | T/C (dose: 50.0 mg/kg/injection, schedule: Q01DX009 (ip), vehicle: saline, evaluated on day 60): 99 and 100 % of control | T/C (dose: 100.0 mg/kg/injection, schedule: Q01DX009 (ip), vehicle: saline, evaluated on day 30): 103 [9 of 10 alive] and 109 % of control | T/C (dose: 100.0 mg/kg/injection, schedule: Q01DX009 (ip), vehicle: saline, evaluated on day 60): 102 % of control | survivor count (dose: 100.0 mg/kg/injection, schedule: Q01DX009 (ip), vehicle: saline): 10 of 10 | survivor count (dose: 200.0 mg/kg/injection, schedule: Q01DX009 (ip), vehicle: saline): 9 of 10 (2×) and 10 of 10

C[C@]1(O)CC[C@H]2[C@@H]3CCC4=CC(=O)CC[C@]4(C)[C@@]3(F)[C@@H](O)C[C@@]21C
T/C (dose: 16.0 mg/kg/injection, schedule: Q01DX009 (ip), vehicle: Klucel (hydroxypropylcellulose) (HPC)): 131 % of control | T/C (dose: 32.0 mg/kg/injection, schedule: Q01DX009 (ip), vehicle: Klucel (hydroxypropylcellulose) (HPC)): 125 % of control | survivor count (dose: 512.0 mg/kg/injection, schedule: Q01DX009 (ip), vehicle: Klucel (hydroxypropylcellulose) (HPC)): 0 of 6

COc1cc(C[C@H]2c3cc(OC)c(OC)cc3CCN2C)c(Oc2cc3c(cc2OC)-c2c(OC)c(OC)cc4c2[C@H](C3)N(C)CC4)cc1OC
survivor count (dose: 100.0 mg/kg/injection, schedule: Q01DX005 (ip), vehicle: Klucel (hydroxypropylcellulose) (HPC)): 3 of 10 | survivor count (dose: 200.0 mg/kg/injection, schedule: Q01DX005 (ip), vehicle: Klucel (hydroxypropylcellulose) (HPC)): 1 of 10 and 6 of 10 | survivor count (dose: 400.0 mg/kg/injection, schedule: Q01DX005 (ip), vehicle: Klucel (hydroxypropylcellulose) (HPC)): 0 of 10 and 6 of 10

NC(C/[N+]([O-])=N/O)C(=O)O (stereo unspecified)
survivor count (dose: 28.12 mg/kg/injection, schedule: Q01DX009 (ip), vehicle: saline): 10 of 10 | survivor count (dose: 50.0 mg/kg/injection, schedule: Q01DX009 (ip), vehicle: Klucel (hydroxypropylcellulose) (HPC)): 10 of 10 | survivor count (dose: 56.25 mg/kg/injection, schedule: Q01DX009 (ip), vehicle: saline): 10 of 10 | survivor count (dose: 100.0 mg/kg/injection, schedule: Q01DX009 (ip), vehicle: Klucel (hydroxypropylcellulose) (HPC)): 9 of 10 and 10 of 10 (2×) | survivor count (dose: 112.5 mg/kg/injection, schedule: Q01DX009 (ip), vehicle: saline): 9 of 10 | survivor count (dose: 200.0 mg/kg/injection, schedule: Q01DX009 (ip), vehicle: Klucel (hydroxypropylcellulose) (HPC)): 6 of 10 and 9 of 10 | survivor count (dose: 225.0 mg/kg/injection, schedule: Q01DX009 (ip), vehicle: saline): 10 of 10 | survivor count (dose: 400.0 mg/kg/injection, schedule: Q01DX009 (ip), vehicle: Klucel (hydroxypropylcellulose) (HPC)): 2 of 10 (2×) | survivor count (dose: 450.0 mg/kg/injection, schedule: Q01DX009 (ip), vehicle: saline): 9 of 10 | survivor count (dose: 800.0 mg/kg/injection, schedule: Q01DX009 (ip), vehicle: Klucel (hydroxypropylcellulose) (HPC)): 1 of 10 and 2 of 10 | survivor count (dose: 900.0 mg/kg/injection, schedule: Q01DX009 (ip), vehicle: saline): 10 of 10

CCC1=C(c2ccc(OC)cc2)CCC(C(=O)O)C1C (stereo unspecified)
survivor count (dose: 16.0 mg/kg/injection, schedule: Q01DX005 (ip), vehicle: saline with Tween-80): 10 of 10

c1ccc([C@H]2CN3CCSC3=N2)cc1
survivor count (dose: 5.0 mg/kg/injection, schedule: Q01DX009 (ip), vehicle: saline): 10 of 10 | survivor count (dose: 40.0 mg/kg/injection, schedule: Q01DX009 (ip), vehicle: saline): 3 of 10 and 10 of 10 | survivor count (dose: 80.0 mg/kg/injection, schedule: Q01DX005 (ip), vehicle: saline): 0 of 10 | survivor count (dose: 80.0 mg/kg/injection, schedule: Q01DX009 (ip), vehicle: saline): 0 of 10
